According to patent publication US20240024333A1, “USE OF SMALL MOLECULE FAK ACTIVATORS TO PROMOTE MUCOSAL HEALING” (Regents of the University of Minnesota, priority 2020, published 2024):
For some assays here: At least one structure is not confirmed: it was looked up by name or label, or the drawing left a doubt. Some results were stated once for a whole list of compounds, not compound by compound.

Sequences of proteins named here, by UniProt entry; tags and fusion partners are left off.
UniProt Q05397, whole entry: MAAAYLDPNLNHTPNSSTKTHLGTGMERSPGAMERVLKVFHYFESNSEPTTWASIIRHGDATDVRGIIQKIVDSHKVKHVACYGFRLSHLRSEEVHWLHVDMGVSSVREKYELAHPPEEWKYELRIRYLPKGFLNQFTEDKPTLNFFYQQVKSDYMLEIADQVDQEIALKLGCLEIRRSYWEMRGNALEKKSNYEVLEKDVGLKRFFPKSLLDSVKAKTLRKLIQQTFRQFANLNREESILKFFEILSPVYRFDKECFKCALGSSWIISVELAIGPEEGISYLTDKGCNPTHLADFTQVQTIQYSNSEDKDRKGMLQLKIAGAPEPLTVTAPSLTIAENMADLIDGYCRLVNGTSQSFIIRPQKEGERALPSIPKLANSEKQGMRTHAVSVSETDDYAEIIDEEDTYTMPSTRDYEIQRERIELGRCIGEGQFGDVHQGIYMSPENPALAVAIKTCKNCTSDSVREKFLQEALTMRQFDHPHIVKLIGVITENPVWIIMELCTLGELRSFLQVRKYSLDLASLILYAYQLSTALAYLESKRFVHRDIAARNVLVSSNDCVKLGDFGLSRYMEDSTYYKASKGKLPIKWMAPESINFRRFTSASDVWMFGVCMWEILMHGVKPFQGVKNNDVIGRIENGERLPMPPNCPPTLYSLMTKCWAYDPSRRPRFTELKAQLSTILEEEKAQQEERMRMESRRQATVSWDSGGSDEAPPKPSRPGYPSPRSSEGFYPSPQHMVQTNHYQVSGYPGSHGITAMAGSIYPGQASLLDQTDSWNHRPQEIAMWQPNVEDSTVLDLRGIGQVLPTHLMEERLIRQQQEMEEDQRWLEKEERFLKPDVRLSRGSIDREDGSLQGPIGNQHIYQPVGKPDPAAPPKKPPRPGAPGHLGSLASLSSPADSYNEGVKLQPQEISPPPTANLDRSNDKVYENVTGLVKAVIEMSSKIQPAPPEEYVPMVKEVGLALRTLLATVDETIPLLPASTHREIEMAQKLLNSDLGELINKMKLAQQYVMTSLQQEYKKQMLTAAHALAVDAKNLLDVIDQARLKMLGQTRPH

How the values were obtained:
Caco-2 cells = assay: Caco-2 monolayer wound closure assay; type: cell-based, human; conditions: compared to DMSO vehicle control
Experimental: Caco-2 cells were seeded at 75-80% confluence into collagen I coated 6-well plates. When the cells reached 100% confluence, wounds were made in the monolayers with non-barrier autoclaved tips. Wound images were captured using an inverted light microscope (OLYMPUS CK2, Center Valley, PA) at 0 hours and 24 hours after treatment with DMSO or small molecules. Wound areas were measured with Image J software.

FAK = biological target: T1, FAK (Homo sapiens, UniProt Q05397); assay: Cell-based FAK-Tyr-397 activation (Western blot, Caco-2 cells)
T1 construct: endogenous in cells; host or cells: Caco-2 (human, ATCC)
Experimental: Human Caco-2 cells were from ATCC (Manassas, VA) and maintained in Dulbecco's Modified Essential Eagle's Medium supplemented with 10% FBS as described by us previously 25. 80-90% confluent Caco-2 cells were seeded into cell culture plates pacificated with 1% heat inactivated bovine serum albumin to prevent adhesion and avoid adhesion-associated background FAK activation. Suspended cells were then treated with DMSO (0.1%) or small molecules for 1 hour before harvesting for Western blotting.
Cells were lysed and protein concentration was determined via bicinchoninic acid protein assay (Thermo Fisher, Rockford, IL). […] Images were taken using a LICOR-Odyssey-Fc imaging system (LI-COR Biosciences, Lincoln, NE).

Question: O=C(Nc1cc(C(F)(F)F)ccc1N1CCOCC1)N1CCCC1C1CCCCC1 (centres unmarked) [Compound 21] was tested. Which “stimulation of wound closure over baseline wound closure rates” value (Caco-2 cells) did it give?
Answer: 10-26%

Question: For Cc1ccc(N2CCOCC2)c(NC(=O)NCC(c2ccccc2)N(C)C)c1 (centres unmarked) [Compound 45], which FAK-Tyr-397/FAK fold change (FAK) is on record?
Answer: 1.0 fold change
